Common to all, as to test: peptide or protein array; functional protein microarrays (AtPMA-5000 and AtPMA-10000, about 15,000 Arabidopsis proteins) probed with 150 ul purified ILK1-V5 in solution for 1.5 h with 1% BSA, 5 mM MgCl2 and MnCl2; detected with Cy5-conjugated anti-V5 antibody; three probe arrays against two control arrays without probe; one-sided t-test, 5% significance, FDR; both purified

Protein sequences, listed by entry. Tags and fused reporters are not part of them. Residues count along the entry.
UniProt Q9LK35, residues 23-855: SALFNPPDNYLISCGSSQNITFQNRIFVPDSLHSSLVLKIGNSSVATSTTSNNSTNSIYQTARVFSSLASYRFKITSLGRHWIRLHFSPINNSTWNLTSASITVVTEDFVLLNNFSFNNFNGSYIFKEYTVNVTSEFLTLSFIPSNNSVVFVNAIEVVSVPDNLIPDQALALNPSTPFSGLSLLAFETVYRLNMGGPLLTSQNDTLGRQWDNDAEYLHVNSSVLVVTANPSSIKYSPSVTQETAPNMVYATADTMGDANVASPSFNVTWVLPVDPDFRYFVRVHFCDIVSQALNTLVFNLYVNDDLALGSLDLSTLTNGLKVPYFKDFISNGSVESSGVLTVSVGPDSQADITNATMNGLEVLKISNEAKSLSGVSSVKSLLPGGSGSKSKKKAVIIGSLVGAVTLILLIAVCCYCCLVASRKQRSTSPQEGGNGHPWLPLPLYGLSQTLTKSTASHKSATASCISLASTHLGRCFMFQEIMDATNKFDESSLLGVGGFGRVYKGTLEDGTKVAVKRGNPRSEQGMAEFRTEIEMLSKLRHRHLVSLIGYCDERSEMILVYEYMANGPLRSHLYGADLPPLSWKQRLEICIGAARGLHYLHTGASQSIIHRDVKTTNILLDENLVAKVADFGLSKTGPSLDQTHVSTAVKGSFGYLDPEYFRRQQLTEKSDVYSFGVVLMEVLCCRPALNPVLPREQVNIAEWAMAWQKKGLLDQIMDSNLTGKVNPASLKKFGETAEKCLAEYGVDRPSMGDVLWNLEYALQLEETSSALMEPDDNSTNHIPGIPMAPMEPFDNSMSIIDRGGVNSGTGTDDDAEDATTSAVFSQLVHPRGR

The target of experiment [1] is THE1 receptor kinase (Arabidopsis) (UniProt Q9LK35).
For experiment [2], the target named is T1, MEKK1 immune signaling kinase (Arabidopsis) (UniProt Q39008).
T1 sequence: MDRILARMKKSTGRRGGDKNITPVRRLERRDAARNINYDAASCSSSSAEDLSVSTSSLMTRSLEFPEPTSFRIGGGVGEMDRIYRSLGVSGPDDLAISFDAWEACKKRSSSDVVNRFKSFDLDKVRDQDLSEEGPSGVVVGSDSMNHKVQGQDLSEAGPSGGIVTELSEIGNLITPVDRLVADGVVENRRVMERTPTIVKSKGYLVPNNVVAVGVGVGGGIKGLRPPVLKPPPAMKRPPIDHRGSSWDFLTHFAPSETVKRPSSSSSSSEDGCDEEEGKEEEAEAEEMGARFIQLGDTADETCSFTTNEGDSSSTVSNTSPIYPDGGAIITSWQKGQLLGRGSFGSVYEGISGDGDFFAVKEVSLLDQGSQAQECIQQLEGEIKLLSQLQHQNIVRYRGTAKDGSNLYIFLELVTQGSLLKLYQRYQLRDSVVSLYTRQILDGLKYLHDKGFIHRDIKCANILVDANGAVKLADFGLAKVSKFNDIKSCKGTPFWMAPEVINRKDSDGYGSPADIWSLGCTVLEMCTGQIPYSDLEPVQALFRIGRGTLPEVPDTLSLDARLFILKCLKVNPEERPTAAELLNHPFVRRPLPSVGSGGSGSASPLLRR

The target in experiment [3] is T2, MEKK3 (Arabidopsis) (UniProt Q9M0T3).
T2 sequence: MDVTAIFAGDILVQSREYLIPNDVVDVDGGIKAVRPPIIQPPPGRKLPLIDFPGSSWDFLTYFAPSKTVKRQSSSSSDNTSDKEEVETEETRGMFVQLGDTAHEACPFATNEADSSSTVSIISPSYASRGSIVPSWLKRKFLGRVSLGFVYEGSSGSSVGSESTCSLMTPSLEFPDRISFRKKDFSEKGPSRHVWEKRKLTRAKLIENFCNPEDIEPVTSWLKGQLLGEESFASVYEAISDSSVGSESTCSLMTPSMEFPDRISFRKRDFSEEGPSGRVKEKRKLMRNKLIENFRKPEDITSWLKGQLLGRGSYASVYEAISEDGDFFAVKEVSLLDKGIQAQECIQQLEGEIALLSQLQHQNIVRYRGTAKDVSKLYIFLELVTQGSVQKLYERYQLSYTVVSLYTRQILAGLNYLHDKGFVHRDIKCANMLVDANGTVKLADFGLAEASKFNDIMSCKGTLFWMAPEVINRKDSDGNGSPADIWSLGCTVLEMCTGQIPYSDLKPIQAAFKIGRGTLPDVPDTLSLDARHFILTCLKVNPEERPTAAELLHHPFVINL

In experiment [4] the target is T3, STP1 sugar transporter (Arabidopsis) (UniProt P23586).
T3 sequence: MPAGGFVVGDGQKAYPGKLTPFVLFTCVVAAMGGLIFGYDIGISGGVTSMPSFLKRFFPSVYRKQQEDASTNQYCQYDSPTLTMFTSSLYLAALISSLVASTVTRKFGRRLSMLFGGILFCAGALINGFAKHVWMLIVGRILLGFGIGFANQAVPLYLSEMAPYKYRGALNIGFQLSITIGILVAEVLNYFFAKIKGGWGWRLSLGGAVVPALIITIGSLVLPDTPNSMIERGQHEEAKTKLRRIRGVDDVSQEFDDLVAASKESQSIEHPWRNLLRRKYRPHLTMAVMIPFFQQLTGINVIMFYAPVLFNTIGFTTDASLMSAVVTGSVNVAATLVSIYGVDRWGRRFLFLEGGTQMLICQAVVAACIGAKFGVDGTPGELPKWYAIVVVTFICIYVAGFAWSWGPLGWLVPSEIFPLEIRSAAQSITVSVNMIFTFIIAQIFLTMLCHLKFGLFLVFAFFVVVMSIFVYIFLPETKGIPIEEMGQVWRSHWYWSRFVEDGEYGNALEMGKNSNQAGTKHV

These are yes or no findings as the source states them, for the method shown. Some results given as binding are weak or reduced against the parent protein; the word gives no strength. Sequences can lack the tags named with a protein.

B1: ILK1-V5 (integrin-linked kinase 1, Arabidopsis) (enzyme, UniProt F4IS56 1-479, looked up)
chain: MENITAQLKRGISRQFSTGSIRRTLSRQFTRQSSLDPRRTNMRFSFGRQSSLDPIRRSPDSSKSDDEPHMSVPENLDSTMQLLFMASKGDVRGIEELLDEGIDVNSIDLDGRTALHIAACEGHLGVVKALLSRRANIDARDRWGSTAAADAKYYGNLDVYNLLKARGAKVPKTRKTPMTVSNPREVPEYELNPLEVQVRKSDGISKGAYQVAKWNGTRVSVKILDKDSYSDPERINAFRHELTLLEKVRHPNVIQFVGAVTQNIPMMIVVEYNPKGDLSVYLQKKGRLSPSKALRFALDIARGMNYLHECKPDPIIHCDLKPKNILLDRGGQLKISGFGMIRLSKISQDKAKVANHKAHIDLSNYYIAPEVYKDEIFDLRVDAHSFGVILYEITEGVPVFHPRPPEEVARMMCLEGKRPVFKTKSRSYPPDIKELIEKCWHPEAGIRPTFSEIIIRLDKIVANCSKQGWWKDTFKFPWK
notes: ILK1, integrin-linked kinase 1, a pseudokinase of the Raf-like MAP3K family, Arabidopsis; also called purified ILK1-V5 protein; source: purified as described previously (Brauer et al., 2014, 2016); purity validated by mass spectrometry
For the molecule B1, the binding entry was “no binding” in experiment [1], “no binding” in experiment [2], “binds” in experiment [3] and “no binding” in experiment [4].

The values above are taken from paper PMC9403797, “Back From the Dead: The Atypical Kinase Activity of a Pseudokinase Regulator of Cation Fluxes During Inducible Immunity” (Frontiers in Plant Science, 2022).
